From publication PMC11272581
Results are given in words; binding and its absence hold for the method and conditions named. Binding seen in cells or lysates may run through a third protein. These calls come from enrichment with a bait or labelling near it, and not all partners need be listed.

By UniProt entry, the sequences of proteins in these tests, tags left out.
UniProt Q92922: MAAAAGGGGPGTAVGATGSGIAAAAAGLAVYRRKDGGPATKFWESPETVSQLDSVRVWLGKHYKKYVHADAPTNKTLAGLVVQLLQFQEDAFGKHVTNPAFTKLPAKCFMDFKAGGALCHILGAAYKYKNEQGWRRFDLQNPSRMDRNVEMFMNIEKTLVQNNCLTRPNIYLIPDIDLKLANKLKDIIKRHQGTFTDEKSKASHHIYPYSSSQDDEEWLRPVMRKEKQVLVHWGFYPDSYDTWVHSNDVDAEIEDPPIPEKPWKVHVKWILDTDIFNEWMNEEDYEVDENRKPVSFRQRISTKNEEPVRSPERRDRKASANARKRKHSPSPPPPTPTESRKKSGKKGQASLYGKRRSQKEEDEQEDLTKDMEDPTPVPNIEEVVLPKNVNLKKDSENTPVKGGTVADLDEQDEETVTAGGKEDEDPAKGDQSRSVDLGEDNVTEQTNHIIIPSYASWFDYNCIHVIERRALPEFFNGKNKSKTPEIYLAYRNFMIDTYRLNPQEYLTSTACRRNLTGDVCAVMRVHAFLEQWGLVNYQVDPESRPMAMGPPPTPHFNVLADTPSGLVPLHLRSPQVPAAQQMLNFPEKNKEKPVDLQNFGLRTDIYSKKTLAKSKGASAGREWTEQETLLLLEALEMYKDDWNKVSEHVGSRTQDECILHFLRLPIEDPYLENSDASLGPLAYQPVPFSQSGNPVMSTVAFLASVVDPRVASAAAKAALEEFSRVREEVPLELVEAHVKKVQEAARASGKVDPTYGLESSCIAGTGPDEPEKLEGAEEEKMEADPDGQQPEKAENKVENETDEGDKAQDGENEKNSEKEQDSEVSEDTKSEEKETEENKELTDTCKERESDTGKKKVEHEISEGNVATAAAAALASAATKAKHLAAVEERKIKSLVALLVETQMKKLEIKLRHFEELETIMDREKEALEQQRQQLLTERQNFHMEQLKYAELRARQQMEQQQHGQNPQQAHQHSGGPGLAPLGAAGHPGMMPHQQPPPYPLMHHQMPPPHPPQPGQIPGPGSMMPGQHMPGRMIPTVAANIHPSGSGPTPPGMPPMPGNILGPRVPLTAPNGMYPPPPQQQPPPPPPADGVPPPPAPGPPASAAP

Biological target: T1, argininosuccinate synthase (ASS1) (human (endogenous in HCT116)) (UniProt P00966)
T1 sequence: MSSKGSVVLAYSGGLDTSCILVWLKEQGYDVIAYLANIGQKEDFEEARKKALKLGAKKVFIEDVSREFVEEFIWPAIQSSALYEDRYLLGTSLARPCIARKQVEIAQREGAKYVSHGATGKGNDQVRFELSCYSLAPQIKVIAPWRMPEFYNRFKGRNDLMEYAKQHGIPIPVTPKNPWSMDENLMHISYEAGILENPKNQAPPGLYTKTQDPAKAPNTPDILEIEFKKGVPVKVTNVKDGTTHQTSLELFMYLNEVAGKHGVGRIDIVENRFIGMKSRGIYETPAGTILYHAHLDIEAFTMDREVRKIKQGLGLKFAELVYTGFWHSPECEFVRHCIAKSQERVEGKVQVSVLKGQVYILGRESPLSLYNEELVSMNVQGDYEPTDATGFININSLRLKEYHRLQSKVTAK
Test: affinity purification with mass spectrometry; anti-ASS1 immunoprecipitation (Dynabeads Protein G, overnight) of the nuclear fraction (NE-PER kit) of HCT116 cells, control and Dox-treated; LC-MS/MS of the eluate

binding: binds
Substance: SWI/SNF-related, matrix-associated, actin-dependent regulator of chromatin subfamily C member 1 (SMARCC1) (from UniProt Q92922 1-1105)
